Source: publication PMC4901042
No constants are given. Whether binding was seen depends on the method and setting. Binding calls can cover weak binding; strength is not graded here.

The chains behind the UniProt entries cited, without tags or fusion partners.
UniProt O64645: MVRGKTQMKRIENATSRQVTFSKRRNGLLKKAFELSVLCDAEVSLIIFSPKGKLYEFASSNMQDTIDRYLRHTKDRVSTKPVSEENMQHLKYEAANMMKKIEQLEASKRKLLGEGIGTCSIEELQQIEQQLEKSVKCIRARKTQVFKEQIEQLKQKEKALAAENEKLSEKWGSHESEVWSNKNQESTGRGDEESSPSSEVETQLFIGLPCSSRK

What was measured:
Assay in all cases: two-hybrid; Matchmaker Two-Hybrid System (Clontech); pGBKT7 (BD) and pGADT7 (AD) fusions cotransformed in yeast; SD/-Trp/-Leu/-His/-Ade/X-α-gal (40 μg/ml) with 5 mM 3-AT; grade by the number of clones
[1] = biological target: T1, AGAMOUS-LIKE 24 (AGL24) of Arabidopsis (Arabidopsis) (UniProt O82794)
T1 sequence: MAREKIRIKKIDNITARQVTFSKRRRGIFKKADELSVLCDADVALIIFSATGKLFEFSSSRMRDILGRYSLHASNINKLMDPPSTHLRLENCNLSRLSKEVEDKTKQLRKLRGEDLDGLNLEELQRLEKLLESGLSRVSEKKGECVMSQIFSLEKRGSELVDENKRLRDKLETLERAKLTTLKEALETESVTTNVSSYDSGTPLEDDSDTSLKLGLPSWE

[2] = biological target: SUPPRESSOR OF OVEREXPRESSION OF CONSTANS 1 (SOC1) of Arabidopsis (Arabidopsis) (UniProt O64645)
[3] = biological target: …3 (SEP3) of Arabidopsis (Arabidopsis) (UniProt O22456)
[4] = biological target: PtAGL24 (Poncirus trifoliata (trifoliate orange))

Substance	binding [1]	binding [2]	binding [3]	binding [4]
APETALA1 (AP1) of Arabidopsis, truncated version without the trans-activating C-terminus (domain or fragment)	binds weakly	–	–	–
FLOWERING LOCUS (FLC) of Arabidopsis	no binding	–	–	–
PtAGL24 (from UniProt A0A1I9ZJQ3)	binds	binds	binds	–
SUPPRESSOR OF OVEREXPRESSION OF CONSTANS 1 (SOC1) of Arabidopsis (from UniProt O64645 1-214)	–	–	–	binds
…3 (SEP3) of Arabidopsis (from UniProt O22456-1 1-251)	–	–	–	binds
